Consider one compound from patent US10261090B2, “Glutathione-detecting fluorescent probe” (THE UNIVERSITY OF TOKYO, priority 2014, dated 2019).

The structures appear in SMILES notation.

The nature of this data set: Assay by fluorescent probe using FRET. The data set is classed as physicochemical. The settings on record: glutathione addition 1 μM-10 mM; 0.5 μM probe, pH 7.4, excitation 550 nm.

Turning to `Cc1cc(C(=O)NC2CCC(NC(=O)c3ccc(-c4c5ccc(=[N+](C)C)cc-5oc5cc(N(C)C)ccc45)c(C(=O)[O-])c3)CC2)ccc1C1=C2C=CC(=N)C=C2[Si](C)(C)c2cc(N)ccc21` (centres unmarked) [Compound 8, 2Me SiR600-TMR], the “fluorescence intensity of the 584 nm peak (donor)” value is on record as “increase in the fluorescence intensity of the 584 nm peak” and the “fluorescence intensity of the 615 nm peak (acceptor)” value is listed as “decrease in the fluorescence intensity of the 615 nm peak”.
